# Data: PubChem BioAssay AID540276 (National Center for Advancing Translational Sciences (NCATS), 2011)
# Screen size: about 300,000 compounds; about 5,400 (1.8%) were called active. Calls follow the shape of the full dose curve; tested in HEK293 cells. Inconclusive results, whose numbers are uncertain, are shown. Where the call is inconclusive, the potency comes from a doubtful curve fit.
# Test: qHTS for inhibitors of binding or entry into cells for Marburg Virus
# Details: Marburg virus pseudotyped entry inhibition, cell reporter; series mostly up to 37.8 µM
# Potency is read from the fitted curve at half-maximal effect.
row,SMILES,Potency
1,COc1cc(/C=C2\C(=N)N3N=C(S(C)(=O)=O)SC3=NC2=O)ccc1OCCOc1ccccc1C,"inconclusive: 355 nM [activator, full curve, poor fit]"
